Data published in patent publication US10273453B2, “Method for stem cell differentiation in vivo by delivery of morphogenes with mesoporous silica and corresponding pharmaceutical active ingredients” (Nanologica AB, priority 2010, dated 2019).
For at least one compound, name, drawing or mass did not settle the structure.

Tested on: bNCSCs
Assay: in vitro differentiation assay of bNCSCs
Assay type: cell-based, mouse
Details: bNCSC cultures, compared to untreated cells
Experimental: bNCSCs were isolated in a semiclonal fashion from EGFP embryos on embryonic day (E)11, as described previously (Hjerling-Leffler J, Marmigére F, Heglind M, et al. The boundary cap: a source of neural crest stem cells that generate multiple sensory neuron subtypes. Development 2005; 132:2623-32). Briefly, the DRGs along with boundary caps were mechanically separated from the isolated spinal cord and mechano-enzymatically dissociated using Collagenase/Dispase (1 mg/ml) and DNase (0.5 mg/ml) for 30 minutes at room temperature. Cells were plated at 0.5-1×10^5 cells/cm^2 in N2 medium containing B27 (Gibco, Grand Island, N.Y., www.invitrogen.com) as well as EGF and basic fibroblast growth factor (R&D Systems, Minneapolis, www.rndsystems.com; 20 ng/ml, respectively). […]
The AMS were added to the cultures and the time-window for their presence before dissolving in the culture medium was established. We also analyzed their contact with the stem cells. […] After staining 10 photographs were taken from each slide and the ratios of neurons and glial cells were calculated in all types of experiments. We also calculated the neurite length per cell as a measure of the level of neuronal differentiation (Kozlova E N. Differentiation and migration of astrocytes in the spinal cord following dorsal root injury in the adult rat. Eur J Neurosci 2003; 17:782-90).

## CC1=C(/C=C/C(C)=C/C=C/C(C)=C/C(=O)O)C(C)(C)CCC1 [RA, retinoic acid]
  differentiation of glial cells (GFAP): strongly reduced
